Results taken from patent US11560596B2, “Method for expecting and diagnosing UQCRB-related disease” (Industry-Academic Cooperation Foundation, Yonsei University, priority 2015, dated 2023).
For at least one compound, name, drawing or mass did not settle the structure.

Test system: UQCRB mutant cell strains MT1 and MT2
Assay: MTT colorimetric assay of cell growth after treatment with cholesterol synthesis inhibitors
Format: cell-based
Settings: FIGS. 11 to 13
Excerpt: FIG. 11 represents MTT colorimetric assay showing the cell growth of HEK293, MT1, and MT2 cells treated with a cholesterol inhibitor.
FIG. 12 represents MTT colorimetric assay showing the cell growth of HEK293, MT1, and MT2 cells treated with a cholesterol inhibitor.
FIG. 13 represents MTT colorimetric assay showing the cell growth of HEK293, MT1, and MT2 cells treated with a cholesterol inhibitor.
For the purpose of verifying validity for selection of cholesterol metabolic process as a pathway in which UQCRB was participated, a cholesterol synthesis inhibitor was processed in UQCRB mutant cell strains to measure an effect that the cholesterol synthesis inhibitor affects growth of the UQCRB mutant cell strains, and the result thereof was shown in FIGS. 11 to 13.

CCCc1cc(-c2nc(-c3ccc(C)cc3)cs2)ccn1 [Fatostatin]
growth of the UQCRB mutant cell strains MT1 and MT2: inhibited
